These are yes or no findings as the source states them, for the method shown. A result given as binding can be weak or reduced; the word gives no strength.
How the values were obtained:
HLA-B*07:02 (human) = assay: UV peptide exchange, anti-b2m ELISA
HLA-B*44:02 (human) = assay: UV peptide exchange, anti-b2m ELISA

| binding (HLA-B*07:02 (human)) | binding (HLA-B*44:02 (human)) | Binder |
| --- | --- | --- |
| binds | – | SPALHIGSV [… (SEQ ID NO: 385)] |
| binds | – | TPTKETVSL [… (SEQ ID NO: 383)] |
| binds | – | SPAPLKLSRTPA [… (SEQ ID NO: 388)] |
| binds | – | SPGAQRTFFQL [… (SEQ ID NO: 389)] |
| binds | – | KPIESTLVA [… (SEQ ID NO: 392)] |
| binds | – | APLKLSRTPA [… (SEQ ID NO: 387)] |
| binds | – | SPMHDRWTF [… (SEQ ID NO: 382)] |
| binds | – | LPEQTPLAF [… (SEQ ID NO: 381)] |
| binds | – | YPGLRGSPM [… (SEQ ID NO: 384)] |
| binds | – | APSTPRITTF [… (SEQ ID NO: 391)] |
| binds | – | NPDLRRNVL [… (SEQ ID NO: 390)] |

Further lines, the binder ahead of its results:

| Binder | binding (HLA-B*07:02 (human)) | binding (HLA-B*44:02 (human)) |
| --- | --- | --- |
| TAKTPDATF [… (SEQ ID NO: 363)] | binds | – |
| RPRSPAGQVAAA [… (SEQ ID NO: 377)] | binds | – |
| TPSVVTEGF [… (SEQ ID NO: 367)] | binds | – |
| VPTPVFPTM [… (SEQ ID NO: 368)] | binds | – |
| RPRSPAGQVAA [… (SEQ ID NO: 378)] | binds | – |
| LYVDGFTHW [… (SEQ ID NO: 371)] | binds | – |
| TPLATTQRFTY [… (SEQ ID NO: 365)] | binds | – |
| PGGTRQSL [PGGTRQSL (SEQ ID NO: 370)] | binds | – |
| GPFPLVYVL [… (SEQ ID NO: 379)] | binds | – |
| IPTYGRTF [IPTYGRTF (SEQ ID NO: 380)] | binds | – |
| AAASPLLLL [… (SEQ ID NO: 375)] | binds | – |
| FPHSEMTTV [… (SEQ ID NO: 369)] | binds | – |
| IPRNPPPTLL [… (SEQ ID NO: 372)] | binds | – |
| FPFNPLDF [FPFNPLDF (SEQ ID NO: 386)] | binds | – |
| RPRALRDLRIL [… (SEQ ID NO: 373)] | binds | – |
| AEFLLRIFL [… (SEQ ID NO: 52)] | – | binds |
| RPRSPAGQVA [… (SEQ ID NO: 376)] | binds | – |
| TPLATTQRF [… (SEQ ID NO: 364)] | binds | – |
| NPIGDTGVKF [… (SEQ ID NO: 374)] | binds | – |
